These are yes or no findings as the source states them, for the method shown.
Biological target: E. coli RNA 5′ pyrophosphohydrolase (RppH) (Escherichia coli) (UniProt P0A776)
Test: SEC; HiPrep 26/60 Superdex 200 prep grade; 50 mM Tris-HCl pH 7.5, 1 mM EDTA, 0.30 M NaCl; 2.0 mL/min; EcRppH peak at 259.4 mL, compared with molecular weight standards (myoglobin Mr 17,000 at 253.4 mL); both purified

B1: E. coli RNA 5′ pyrophosphohydrolase (RppH) (enzyme, UniProt P0A776 1-176)
chain: MIDDDGYRPNVGIVICNRQGQVMWARRFGQHSWQFPQGGINPGESAEQAMYRELFEEVGLSRKDVRILASTRNWLRYKLPKRLVRWDTKPVCIGQKQKWFLLQLVSGDAEINMQTSSTPEFDGWRWVSYWYPVRQVVSFKRDVYRRVMKEFASVVMSLQENTPKPQNASAYRRKRG
For B1, the binding was “no binding”.

Source: PMC4680915
